Results on one molecule are retold here after PubChem BioAssay AID248 (DTP/NCI, 2004).

The list shows only some results of the screen, not a fair sample: it is rich in T/C values a quarter to a half above the control, in often repeated tests (any T/C) and in doses without a T/C. Other doses and runs of a compound stand elsewhere. T/C gives the treated animals as a percentage of the vehicle group. Some entries give survivors of the animals treated and no T/C: the source files T/C as zero there, which appears to mark a toxic dose or a test without result, not a measured value. Counts of survivors are from the toxicity check (mostly the fifth day) where no day follows; animals may have died later. Schedule codes are those of the source, read here as Q, the interval in days (D) or hours (H), X, the number of doses.

The assay deals with L1210 leukemia ip in BDF1 mice, survival T/C. The assay is described as follows: NCI In Vivo Anticancer Drug Screen. Data for tumor model L1210 Leukemia (intraperitoneal) in B6D2F1 (BDF1) mice. To be noted: T/C endpoint: mean survival time, schedule: Q04DX003 (ip), vehicle: Klucel (hydroxypropylcellulose) (HPC), higher T/C = longer survival.

For the molecule `CCCCCCCC1CCC(N)CC1` (stereo not drawn), the survivor count was 3 of 6 (dose: 100.0 mg/kg/injection), 2 of 6 (dose: 200.0 mg/kg/injection) and 1 of 6 (dose: 400.0 mg/kg/injection).
